# From PubChem BioAssay AID504467 (National Center for Advancing Translational Sciences (NCATS), 2011)
# Screen size: about 330,000 compounds; about 7,700 (2.3%) were called active. This list was built around the results that the source calls inconclusive (neither active nor inactive); the mix of calls is not that of the screen. Calls follow the shape of the dose curve; as a rule, active = well fitted inhibition curve with a large enough effect; inconclusive = small, poorly fitted or top-dose-only effect, or effect the other way; inactive = flat fitted curve, though single readings scatter. Potencies beside an inconclusive call are fits to weak or partial responses and may not hold up.
# Assay: qHTS screen for small molecules that inhibit ELG1-dependent DNA repair in human embryonic kidney (HEK293T) cells expressing luciferase-tagged ELG1; also: nearly all actives have a fitted effect of over 55% in size
# Conditions: HEK293T ELG1-luciferase reporter, luminescence, 16 h, DNA damage induced by 5-fluorouridine; series mostly up to 46.1 µM
# In short: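 Reporter activity after DNA damage by 5-fluorouridine is monitored. Compound-treated cells incubate 16 hr at 37 °C, then ONE-Glo is added for 30 min before luminescence reading.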
# Potency is read from the fitted curve at half-maximal effect.
row,SMILES,Potency
1,COC(=O)[C@@H](Cc1c[nH]c2ccccc12)NC(=O)c1cc(=O)[nH]c2ccccc12,"inconclusive: 29.1 µM [activator, single point]"
2,COc1ccc2c(c1)O[C@H](c1ccc3c(c1)OCO3)[C@@H](OC(=O)Nc1cc(OC)c(OC)c(OC)c1)C2=O,"inconclusive: 0.291 µM [inhibitor, full curve]"
3,O=C(Cn1nnc2ccccc21)OCC(=O)c1ccccc1,"inconclusive: 18.4 µM [activator, single point]"
4,COc1ccc(CNC(=O)C[C@H]2C(=O)N(Cc3ccccc3)C[C@@H]2Cc2ccccc2)cc1,"inconclusive: 5.8 µM [inhibitor, single point]"
5,COc1ccccc1NC(=O)c1nn(-c2cccc(C(F)(F)F)c2)ccc1=O,"inconclusive: 14.1 µM [inhibitor, partial curve, poor fit]"
6,COc1ccccc1-n1c(CCC(=O)O)ccc1-c1ccccc1,inactive
7,Cc1ccccc1C(=O)Nc1ccc(C(=O)N/N=C/c2ccncc2)cc1,"inconclusive: 6.51 µM [activator, single point]"
8,CC1CCCN(S(=O)(=O)c2ccc3c(c2)c(=O)nc2ccccn23)C1 (stereo not drawn),"inconclusive: 23.1 µM [inhibitor, partial curve, poor fit]"
9,CN(C(=O)CSc1n[nH]c(N)n1)C1CCCCC1,inactive
10,CC(C)(C)c1csc(N/N=C/c2ccc(O)cc2)n1,"inconclusive: 20 µM [activator, single point]"
11,CCN(CC)S(=O)(=O)c1ccc(C(=O)Nc2cc3oc4ccccc4c3cc2OC)cc1,"inconclusive: 5.17 µM [inhibitor, single point]"
12,O=S(=O)(Cc1cc(-c2ccccc2Cl)no1)c1ccccc1,"inconclusive: 3.66 µM [activator, full curve]"
13,CCCNC(=S)N1CCC(C(=O)c2ccc(Cl)cc2)CC1,inactive
14,COc1ccc([C@H]2CC(=O)c3c(O)cc(O)cc3O2)cc1O,"inconclusive: 29.1 µM [activator, single point]"
15,COc1cc2c(cc1OC)CN(C(=O)CCOc1ccccc1C)CC2,"inconclusive: 25.9 µM [inhibitor, partial curve]"
16,C=CCn1c(SCC(=O)N2CCOCC2)nc2sc3c(c2c1=O)CCCC3,active: 18.4 µM
17,COc1cc(/C=C2/C(=O)NN(c3ccc(Cl)cc3)C2=O)ccc1OC(=O)c1ccco1,"inconclusive: 25.9 µM [activator, single point]"
18,CCCc1cc(C(=O)Nc2ccc(C(=O)OC)cc2)cs1,"inconclusive: 8.2 µM [activator, partial curve]"

# An excerpt of these results, with tabs:
row	SMILES	Potency
2	COc1ccc2c(c1)O[C@H](c1ccc3c(c1)OCO3)[C@@H](OC(=O)Nc1cc(OC)c(OC)c(OC)c1)C2=O	inconclusive: 0.291 µM [inhibitor, full curve]
18	CCCc1cc(C(=O)Nc2ccc(C(=O)OC)cc2)cs1	inconclusive: 8.2 µM [activator, partial curve]
